From patent publication US20230174633A1, “METHODS AND COMPOSITIONS FOR MODULATING LIPID STORAGE IN ADIPOSE TISSUE” (MEMORIAL SLOAN KETTERING CANCER CENTER, priority 2020, published 2023)

Tests used:
Lepr^-/- (db/db) mice = assay: PLX5622 treatment of leptin-receptor deficient mice that spontaneously develop obesity; assay type: in vivo, mouse; settings: PLX5622 in diet; versus untreated controls
Text: (§1) Mice and diets. All experiments on mice were realized in accordance with an animal license issued by the Institutional Review Board (IACUC 15-04-006) from MSKCC. All mice were maintained under SPF conditions. C57B1/6J male mice were purchased from Jackson laboratories. Rosa26^LSL-Tomato (Stock No: 007908), Rosa26^LSL-^YFP (Stock No:006148), Rosa26^mTmG (Stock No: 007576) and Lepr^-/-(db/db) (herein referred to as Lepr^-/-; Stock No: 000697) mice were purchased from Jackson laboratories and bred in house. Csf1r^Cre, Csf1r^MeriCreMer, and Csf1r^fl/fl mice were obtained from J W. Pollard (The University of Edinburgh), Cx3cr1^GFP/+ mice were obtained from Drs. Dan Littman (NYU Skirball institute), Flt3^Cre mice were obtained from Thomas Boehm (Max Planck institute) and Tnfrsf11a^Cre mice were obtained from Y. Kobayashi (Matsumoto Dental University). Ccr2^-/- mice were obtained from IF. Charro (UCSF) Csf1r^-/- mice were backcrossed to FVB/NJ for more than 10 generations. Mice were fed ad libitum a rodent irradiated diet containing 45% kcal from lipids (Research Diets Inc., reference D12451i) or 10% kcal from lipids (Research Diets Inc., reference D12450hi) for 8 weeks. In mice supplemented with the CSF-1R inhibitor PLX5622 (Plexxikon), the aforementioned diets were impregnated with 1200 mg of inhibitor per kg of food. […]
Triglyceride Measurement for Mice. […] Triglyceride was then measured using the free glycerol reagent (Sigma; F6428) as described in the manufacturer’s protocol and normalized to the liver weight.
To quantify the size of the adipocytes, the software image J was used. Regions of interest (ROI) were drawn following the cellular membrane of the adipocytes and the surface of the ROI was determined by the software. 50 adipocytes were measured per field of view of the eWAT. Adipocytes were measured on 3 fields of view, taken with N-Achroplan 10x/0.25 objective. Crown-like structures (CLS) were quantified on the same fields of view. […]

C57B1/6J mice = assay: Treatment of C57Bl/6J mice fed 45% or 10% lipid diet (diet-induced obesity); assay type: in vivo, mouse; settings: 1,200 mg PLX5622/kg of food; versus control mice
Text: as §1, with “weeks.” for “weeks. In mice supplemented with the CSF-1R inhibitor PLX5622 (Plexxikon), the aforementioned diets were impregnated with 1200 mg of inhibitor per kg of food.”
Glucose and insulin tolerance tests were performed as described; in brief, for the glucose tolerance test, the mice were fasted for 4h before experiment, but had water ad libitum. The weight and glycaemia were measured, and the mice were injected intraperitoneally with 2 g glucose (Thermo Scientific) per kg of body weight. Following the glucose injection, glycemia was measured every 30 min for 2 hours. […] The weight and the glycaemia were measured, and the mice were injected with 0.25U insulin (Sigma) per kg of body weight. Following the glucose injection, glycemia was measured every 30 min for 2 hours. […]
Infrared imaging of mice. […] These images were into RAW files and then analyzed in AMIDE. […] The 10% top warmest pixels were used for interscapular and inguinal quantifications. The 20% top warmest pixels were used for dorsal quantifications. […]

Which ambulatory activity (Lepr^-/- (db/db) mice) does the source give for `COc1ncc(F)cc1CNc1ccc(Cc2c[nH]c3ncc(C)cc23)c(F)n1` [PLX5622] here?
The ambulatory activity was “did not detectably modify”.

And the fecal caloric density (Lepr^-/- (db/db) mice)?
The fecal caloric density was “did not detectably modify”.

What about the food intake (Lepr^-/- (db/db) mice) of the same compound?
Its food intake is “did not detectably modify”.

And the ambulatory activity (C57B1/6J mice)?
The ambulatory activity was “no different”.

And the fecal caloric density (C57B1/6J mice)?
Its fecal caloric density is “no different”.

What about the food intake (C57B1/6J mice) of the same compound?
Its food intake is “no different”.
